PubChem BioAssay AID743454 | Peter MacCallum Cancer Centre | 2014

Purpose: 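Search for knock-downs that restore vorinostat killing in resistant colon cancer cells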 (primary screen)
Cells: human HCT116-VR colon cancer cells, selected for vorinostat resistance
Reagents: siRNA pool against human genes, 40 nM siRNA pool
Time to read-out: vorinostat for 24 h, read-out about 72 h after transfection
Challenge: vorinostat at 2.5 µM final
Measurement: 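Two measures, CellTiter-Fluor viability and luminescent caspase 3/7 activity, each as fold change against same-plate mock wells, mean of duplicates, then screen-wide robust z-score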
Reading the numbers: viability robust z-score: higher = more viable cells than screen typical; caspase robust z-score: higher = more caspase 3/7 activity than screen typical
Call rule: 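a knock-down is a hit when classed RV1 or RV2 for lowered viability, or CA1 or CA2 for caspase activation; those lethal without drug were dropped; hits were retested singly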
In all, the deposit lists about 18,000 reagents; below is a random part of them. Of all reagents, 450 (2.5%) got an active call. 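Single biological run; no consistent viability z cut-off exists, so the class columns, not z-scores, define the calls.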

| gene symbol | viability hit class | caspase hit class | viability robust z-score | caspase robust z-score | outcome |
| --- | --- | --- | --- | --- | --- |
| RNF114 | no change | no change | -0.62 | 1.5 | inactive |
| SPATA45 | no change | no change | -0.34 | -0.74 | inactive |
| KRTAP5-9 | no change | no change | -2.65 | 4.34 | inactive |
| TRIP6 | no change | no change | 0.32 | -0.08 | inactive |
| RLN3 | no change | CA1 (caspase activation) | -0.6 | 9.17 | active |
| PCDHGA3 | no change | no change | 0.63 | -0.3 | inactive |
| MTHFD2 | no change | no change | 0.87 | -0.52 | inactive |
| ZNF121 | no change | no change | -2.02 | 2.08 | inactive |
| RPRD2 | no change | no change | 0.19 | -0.1 | inactive |
| GEMIN6 | no change | no change | 0.19 | -0.7 | inactive |
| KRT78 | no change | no change | 0.98 | 1.41 | inactive |
| LRRC14 | RV2 (reduced viability) | no change | -3.49 | 3.08 | active |
| OR5K4 | no change | no change | -0.08 | -1.17 | inactive |
| RAB42 | no change | no change | -1.06 | -0.38 | inactive |
| CREBL2 | no change | no change | -1.85 | 1.13 | inactive |
| EIF3D | no change | no change | -1.82 | -0.36 | inactive |
| ZNF576 | no change | no change | -0.2 | 1.35 | inactive |
| ELF3 | no change | no change | -0.3 | 2.42 | inactive |
| TP53AIP1 | no change | no change | 0.55 | 3.71 | inactive |
| GALNT6 | no change | no change | -0.49 | 0.78 | inactive |
| PSENEN | no change | no change | -0.08 | -0.7 | inactive |
| FAM217B | no change | no change | 0.4 | -0.09 | inactive |
| SMC5 | no change | no change | -0.59 | 1.96 | inactive |
| S100Z | no change | no change | -0.05 | -0.23 | inactive |
| HMBOX1 | no change | no change | 0.33 | -0.57 | inactive |
| RBL2 | no change | no change | 0.41 | -0.34 | inactive |
| IFT70B | no change | no change | 0.1 | -1.19 | inactive |

Entries above marked active:
| gene symbol | viability hit class | caspase hit class | viability robust z-score | caspase robust z-score | outcome |
| --- | --- | --- | --- | --- | --- |
| RLN3 | no change | CA1 (caspase activation) | -0.6 | 9.17 | active |
| LRRC14 | RV2 (reduced viability) | no change | -3.49 | 3.08 | active |

Continued.
| gene symbol | viability hit class | caspase hit class | viability robust z-score | caspase robust z-score | outcome |
| --- | --- | --- | --- | --- | --- |
| TMEM109 | no change | no change | 0.56 | -0.28 | inactive |
| AP2S1 | no change | no change | -2 | -0.05 | inactive |
| KRTAP19-2 | no change | no change | -0.06 | -0.21 | inactive |
| FPR1 | no change | no change | -0.04 | -0.22 | inactive |
| C1QTNF9 | no change | no change | 0.22 | -0.83 | inactive |
| CHST1 | no change | no change | -0.39 | 2.53 | inactive |
| USP1 | no change | no change | -0.17 | -0.4 | inactive |
| OR2A4 | no change | no change | 0.58 | -0.3 | inactive |
| EOLA2 | no change | no change | 0.56 | 2.06 | inactive |
| STC1 | no change | no change | -0.16 | -0.08 | inactive |
| MAMSTR | no change | no change | -0.45 | 0.06 | inactive |
| KLHDC7A | no change | no change | 0.35 | -0.54 | inactive |
| USP12 | no change | no change | 0.22 | 0.34 | inactive |
| MCM4 | no change | no change | -1.06 | -0.06 | inactive |
| AGA | no change | no change | 0.51 | -0.31 | inactive |
| WHAMM | no change | no change | -0.8 | 3.76 | inactive |
| OCRL | no change | no change | 0.04 | 1.48 | inactive |
| DCAKD | no change | no change | 0.65 | -0.13 | inactive |
| MRPL57 | no change | no change | -0.54 | 1.75 | inactive |
| HNRNPLL | no change | no change | 0.04 | 1.13 | inactive |
| SCAF11 | no change | no change | 0.72 | 1.22 | inactive |
| TMEM256 | no change | no change | -0.9 | -0.59 | inactive |
| DPT | no change | no change | 1.69 | 1.02 | inactive |
| RNF112 | no change | no change | -0.71 | -0.68 | inactive |
| PIGU | no change | no change | -0.54 | -0.08 | inactive |
| CYTL1 | no change | no change | -0.4 | -0.38 | inactive |
| NIPSNAP2 | no change | no change | 0.15 | -0.47 | inactive |
| ROPN1B | no change | no change | 0.04 | -0.7 | inactive |
| FIGN | no change | no change | 0.34 | 0.94 | inactive |
| CAPN6 | no change | no change | 0.96 | 4 | inactive |
